Peptide text beside a SMILES is read from it.

Data set [1] concerns LPS micelles. Kind of data set: Isothermal titration calorimetry. The data set is classed as binding, E. coli 0111:B4. To be noted: ITC; for ΔH: 10 μM LPS, pH 7.0, 25 °C; for TΔS / ΔG: 25 °C; for TΔS: TΔS = (ΔH − ΔG); for ΔG: ΔG = −RTlnKa. As to the method:
Isothermal titration calorimetry: Binding of designed peptides with LPS micelles was determined using isothermal titration calorimetry in VP-ITC micro calorimeter (Microcal Inc, Northampton, MA, USA). Peptides and LPS samples were dissolved in 10 mM phosphate buffer, pH 7.0 and filtered. LPS at a concentration of 10 μM was loaded into the sample cell and the reference cell was filled with the same buffer. The syringe was filled with 1mM peptide solution. Typically 30 injections of 3.5 μL of the peptides were made into the sample cell at 25 °C. Sample cell was stirred continuously at 300 rpm. Raw data were obtained and analyzed using single site binding model in Microcal Origin 5.0 software. Association constant (Ka) and enthalpy change (ΔH) were directly determined from ITC profiles. Dissociation constant was calculated from Kd = 1/Ka. ΔG and TΔS were estimated from the fundamental equations of thermodynamics, ΔG = −RTlnKa and TΔS = (ΔH − ΔG), respectively.
For orientation: In ITC the heat of successive injections is recorded.

In data set [2] the test system is LPS micelles. Kind of data set: Intrinsic tryptophan fluorescence and acrylamide quenching in LPS. The class given is binding, E. coli 0111:B4. To be noted: for Intrinsic tryptophan emission maxima λmax, LPS: 5 μM peptide with LPS micelles, excitation 280 nm; for Stern-Volmer constant (Ksv), LPS: acrylamide quenching of Trp, peptide/LPS complex.
The next data set deals with DPC micelles. Kind of data set: Intrinsic tryptophan fluorescence and acrylamide quenching in DPC. The data set is classed as binding. To be noted: for Intrinsic tryptophan emission maxima λmax, DPC: 5 μM peptide with DPC micelles, excitation 280 nm; for Stern-Volmer constant (Ksv), DPC: acrylamide quenching of Trp, peptide/DPC complex.
The nature of data set [3]: Intrinsic tryptophan fluorescence and acrylamide quenching, free peptide. The data set is classed as physicochemical. To be noted: for Intrinsic tryptophan emission maxima λmax, Free: 5 μM peptide, 10 mM sodium phosphate buffer, excitation 280 nm; for Stern-Volmer constant (Ksv), Free: acrylamide quenching of Trp, free peptide in buffer.

In the data set with LPS micelles [1], `CCCC(=O)N[C@@H](Cc1ccc(O)cc1)C(=O)N[C@H](C(=O)N[C@@H](CC(C)C)C(=O)N[C@@H](Cc1c[nH]c2ccccc12)C(=O)N[C@@H](CCCCN)C(=O)N[C@@H](CCCNC(=N)N)C(=O)N[C@@H](CCCCN)C(=O)N[C@@H](CCCNC(=N)N)C(=O)N[C@@H](CCCCN)C(=O)N[C@@H](Cc1ccccc1)C(=O)N[C@@H](CSSC[C@H](NC(=O)[C@H](Cc1ccccc1)NC(=O)[C@H](CCCCN)NC(=O)[C@H](CCCNC(=N)N)NC(=O)[C@H](CCCCN)NC(=O)[C@H](CCCNC(=N)N)NC(=O)[C@H](CCCCN)NC(=O)[C@H](Cc1c[nH]c2ccccc12)NC(=O)[C@H](CC(C)C)NC(=O)[C@@H](NC(=O)[C@H](Cc1ccc(O)cc1)NC(=O)CCC)C(C)C)C(=O)N[C@@H](Cc1ccccc1)C(=O)N[C@H](C(N)=O)[C@@H](C)CC)C(=O)N[C@@H](Cc1ccccc1)C(=O)N[C@H](C(N)=O)[C@@H](C)CC)C(C)C` [C4YI13C] (HELM PEPTIDE1{[CCCC(=O)[*:2]].Y.V.L.W.K.R.K.R.K.F.C.F.I.[am]}|PEPTIDE2{[CCCC(=O)[*:2]].Y.V.L.W.K.R.K.R.K.F.C.F.I.[am]}$PEPTIDE1,PEPTIDE2,12:R3-12:R3$$$V2.0) had a ΔH of 3.0 kcal/mol, a TΔS of 11.6 kcal.mol^−1deg^−1 and a ΔG of -8.6 kcal/mol. Further, in the data set with LPS micelles [2], the “Intrinsic tryptophan emission maxima λmax, LPS” value came to 338 nm and the “Stern-Volmer constant (Ksv), LPS” value was determined as 5.8. Further, in the data set on DPC micelles, the “Intrinsic tryptophan emission maxima λmax, DPC” value is listed as 348 nm and the “Stern-Volmer constant (Ksv), DPC” value turned out to be 11.3. Besides, in data set [3], the “Intrinsic tryptophan emission maxima λmax, Free” value turned out to be 358 nm and the “Stern-Volmer constant (Ksv), Free” value is on record as 37.9.

For the molecule `CCCCCCCC(=O)N[C@@H](Cc1ccc(O)cc1)C(=O)N[C@H](C(=O)N[C@@H](CC(C)C)C(=O)N[C@@H](Cc1c[nH]c2ccccc12)C(=O)N[C@@H](CCCCN)C(=O)N[C@@H](CCCNC(=N)N)C(=O)N[C@@H](CCCCN)C(=O)N[C@@H](CCCNC(=N)N)C(=O)N[C@@H](CCCCN)C(=O)N[C@@H](Cc1ccccc1)C(=O)N[C@@H](CSSC[C@H](NC(=O)[C@H](Cc1ccccc1)NC(=O)[C@H](CCCCN)NC(=O)[C@H](CCCNC(=N)N)NC(=O)[C@H](CCCCN)NC(=O)[C@H](CCCNC(=N)N)NC(=O)[C@H](CCCCN)NC(=O)[C@H](Cc1c[nH]c2ccccc12)NC(=O)[C@H](CC(C)C)NC(=O)[C@@H](NC(=O)[C@H](Cc1ccc(O)cc1)NC(=O)CCCCCCC)C(C)C)C(=O)N[C@@H](Cc1ccccc1)C(=O)N[C@H](C(N)=O)[C@@H](C)CC)C(=O)N[C@@H](Cc1ccccc1)C(=O)N[C@H](C(N)=O)[C@@H](C)CC)C(C)C` [C8YI13C] (HELM PEPTIDE1{[CCCCCCCC(=O)[*:2]].Y.V.L.W.K.R.K.R.K.F.C.F.I.[am]}|PEPTIDE2{[CCCCCCCC(=O)[*:2]].Y.V.L.W.K.R.K.R.K.F.C.F.I.[am]}$PEPTIDE1,PEPTIDE2,12:R3-12:R3$$$V2.0), in the data set with LPS micelles [2], the “Intrinsic tryptophan emission maxima λmax, LPS” value worked out at 334 nm and the “Stern-Volmer constant (Ksv), LPS” value came to 5.0. In the data set on DPC micelles, the “Intrinsic tryptophan emission maxima λmax, DPC” value turned out to be 344 nm and the “Stern-Volmer constant (Ksv), DPC” value amounted to 11.2. Further, in data set [3], the “Intrinsic tryptophan emission maxima λmax, Free” value is reported as 356 nm and the “Stern-Volmer constant (Ksv), Free” value is given as 23.3.

For the molecule `CC[C@H](C)[C@H](NC(=O)[C@H](Cc1ccccc1)NC(=O)[C@H](CSSC[C@H](NC(=O)[C@H](Cc1ccccc1)NC(=O)[C@H](CCCCN)NC(=O)[C@H](CCCNC(=N)N)NC(=O)[C@H](CCCCN)NC(=O)[C@H](CCCNC(=N)N)NC(=O)[C@H](CCCCN)NC(=O)[C@H](Cc1c[nH]c2ccccc12)NC(=O)[C@H](CC(C)C)NC(=O)[C@@H](NC(=O)[C@@H](N)Cc1ccc(O)cc1)C(C)C)C(=O)N[C@@H](Cc1ccccc1)C(=O)N[C@H](C(N)=O)[C@@H](C)CC)NC(=O)[C@H](Cc1ccccc1)NC(=O)[C@H](CCCCN)NC(=O)[C@H](CCCNC(=N)N)NC(=O)[C@H](CCCCN)NC(=O)[C@H](CCCNC(=N)N)NC(=O)[C@H](CCCCN)NC(=O)[C@H](Cc1c[nH]c2ccccc12)NC(=O)[C@H](CC(C)C)NC(=O)[C@@H](NC(=O)[C@@H](N)Cc1ccc(O)cc1)C(C)C)C(N)=O` [YI13C] (HELM PEPTIDE1{Y.V.L.W.K.R.K.R.K.F.C.F.I.[am]}|PEPTIDE2{Y.V.L.W.K.R.K.R.K.F.C.F.I.[am]}$PEPTIDE1,PEPTIDE2,11:R3-11:R3$$$V2.0), in the data set with LPS micelles [1], the ΔH worked out at 4.6 kcal/mol, the TΔS came to 13.6 kcal.mol^−1deg^−1 and the ΔG was -9.03 kcal/mol. Also, in the data set with LPS micelles [2], the “Intrinsic tryptophan emission maxima λmax, LPS” value came to 339 nm and the “Stern-Volmer constant (Ksv), LPS” value is listed as 6.0. Further, in the data set on DPC micelles, the “Intrinsic tryptophan emission maxima λmax, DPC” value turned out to be 354 nm and the “Stern-Volmer constant (Ksv), DPC” value turned out to be 11.1. In data set [3], the “Intrinsic tryptophan emission maxima λmax, Free” value stood at 356 nm and the “Stern-Volmer constant (Ksv), Free” value is given as 43.1.

Values taken from article PMC4014704, “β-Boomerang Antimicrobial and Antiendotoxic Peptides: Lipidation and Disulfide Bond Effects on Activity and Structure” (Pharmaceuticals, 2014).
